Experimental data as given in article PMC12148940.
Results are given in words; binding and its absence hold for the method and conditions named. In cells and extracts the contact can be indirect. These calls come from enrichment with a bait or labelling near it, and not all partners need be listed. For some assays here: No binding means not detected with the bait.

By UniProt entry, the sequences of proteins in these tests, tags left out.
UniProt P99999: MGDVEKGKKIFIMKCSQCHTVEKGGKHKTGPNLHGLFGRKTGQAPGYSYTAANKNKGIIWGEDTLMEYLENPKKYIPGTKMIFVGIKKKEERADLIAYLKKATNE
UniProt O95793: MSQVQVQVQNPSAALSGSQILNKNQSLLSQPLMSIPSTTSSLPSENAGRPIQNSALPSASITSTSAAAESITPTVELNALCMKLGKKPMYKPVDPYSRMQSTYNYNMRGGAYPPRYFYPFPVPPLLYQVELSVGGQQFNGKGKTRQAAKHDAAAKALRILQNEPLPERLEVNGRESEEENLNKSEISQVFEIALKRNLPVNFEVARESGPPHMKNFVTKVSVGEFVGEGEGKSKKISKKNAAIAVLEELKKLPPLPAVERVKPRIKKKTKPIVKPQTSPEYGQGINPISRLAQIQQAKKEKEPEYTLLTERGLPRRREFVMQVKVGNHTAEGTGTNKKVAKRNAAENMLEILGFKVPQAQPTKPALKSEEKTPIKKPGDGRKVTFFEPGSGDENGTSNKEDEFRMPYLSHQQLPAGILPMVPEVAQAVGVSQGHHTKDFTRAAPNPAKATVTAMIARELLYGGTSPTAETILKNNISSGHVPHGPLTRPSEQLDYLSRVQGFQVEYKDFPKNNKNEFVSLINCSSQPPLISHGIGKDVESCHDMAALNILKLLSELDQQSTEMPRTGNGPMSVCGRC

How the values were obtained:
[1] = biological target: G3BP1 (human (endogenous in neurons made from human fibroblasts or iPSCs)) (UniProt Q13283); experiment: affinity purification with mass spectrometry; G3BP1 antibody on anti-rabbit IgG Dynabeads, ~3 mg lysate protein, 16 h at 4 °C; IP lysis buffer 50 mM Tris-HCl pH 7.4, 150 mM NaCl, 1 mM EDTA, 0.5% IGEPAL-CA630; lysates of iPSC-derived neurons (unstressed or 1 h sodium arsenite) and transdifferentiated neurons compared, n = 2
[2] = biological target: G3BP1 (human (endogenous in neurons made from human fibroblasts or iPSCs)) (UniProt Q13283); experiment: condition: only in transdifferentiated (aged) neurons; affinity purification with mass spectrometry; G3BP1 antibody on Dynabeads, same buffers; lysate of transdifferentiated (aged) neurons only
[3] = biological target: HSP90α (human (endogenous in neurons made from human fibroblasts or iPSCs)) (UniProt P07900); experiment: affinity purification with mass spectrometry; HSP90α antibody on anti-rabbit IgG Dynabeads, ~3 mg lysate protein, 16 h at 4 °C; IP lysis buffer 50 mM Tris-HCl pH 7.4, 150 mM NaCl, 1 mM EDTA, 0.5% IGEPAL-CA630; lysates of unstressed iPSC-derived neurons and transdifferentiated neurons compared, n = …

| binding [1] | binding [2] | binding [3] | Substance |
| --- | --- | --- | --- |
| binds |  |  | HSP90α (from UniProt P07900 1-732) |
| binds | no binding |  | VCP (from UniProt P55072 1-806) |
|  |  | binds | cytochrome c (from UniProt P99999 1-105) |
| binds |  |  | staufen-1 (from UniProt O95793 1-577) |
